The structures appear in SMILES notation. The list shows a part of the results. Shown are side measurements of this screen, not its main read-out; they come without a call. Most of these compounds were active or inconclusive in the main read-out, so they are no random draw. Potencies come from curve fits of mixed quality, noted in brackets.

A short description of this test: qHTS Assay for Inhibitors of PDE-IV (AID 607). The following applies: HEK293 ACTOne CNG channel cells, membrane potential fluorescence; measured here: parental cell counter-screen. In a few lines: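 The readout is membrane depolarisation from a cAMP-sensing CNG channel, detected with a potential dye at ex 535/em 590. Cells were HEK293-derived (endogenous PDE-IV) at 1000 cells/well, titrated up to 22.9 uM final.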
For orientation: In qHTS, concentration-response curves come from the screen itself.
Broadly, the AC50 is the concentration giving half of the maximal activity seen. With `Cc1ccc(CNC(=O)[C@H](C)[C@@H]2C[C@@]2(C)[C@@H](NC(=O)OCc2ccccc2)c2ccccc2)c(F)c1F`, the AC50 was 12.6 µM [rising, single point].
In the case of `COc1ccc(Br)c2c1C[C@H](C(=O)O)CC2` it was 3.16 µM [rising, single point]; in that of `O=C(c1ccco1)N1CCC[C@@]2(CCN(c3ccccn3)C2)C1`, 0.631 µM [rising, single point]; in that of `COc1ccccc1-c1nccc(NCc2cccc(C)c2)n1`, 6.31 µM [rising, partial curve].
In the case of `O=C1[C@@H]2[C@@H](C(=O)N1c1ccc(OCc3ccccc3)cc1)[C@@H]1c3ccccc3[C@@H]2[n+]2ccccc21` it was 2.51 µM [rising, single point]; in that of `COc1ccccc1CNc1ncncc1-c1ccccc1C`, 15.8 µM [rising, single point]; in that of `O=C(c1csnn1)N1CCC2(CC1)CCN(c1ccncc1)CC2`, 3.98 µM [rising, single point].
Take `S=C(S)O[C@@H]1C[C@@H]2C[C@H]1[C@@H]1CCC[C@H]21`: the AC50 was 12.6 µM [rising, partial curve].
With `COC(=O)[C@@]1(Cc2ccc(F)cc2)[C@H]2c3cc(C(=O)N(C)C)n(CC4CC4)c3C[C@H]2CN1C(=O)c1ccccc1` the figure was 3.98 µM [rising, single point]; with `COC(=O)[C@@]1(Cc2ccccc2)[C@H]2c3cc(C(=O)N(C)C)n(Cc4ccccc4)c3C[C@H]2CN1C(=O)c1ccccc1`, 2.51 µM [rising, partial curve].

The values are drawn from PubChem BioAssay (NCATS).
